{"sequences": {"note": "The chains behind the UniProt entries cited, without tags or fusion partners.", "UniProt P70338": "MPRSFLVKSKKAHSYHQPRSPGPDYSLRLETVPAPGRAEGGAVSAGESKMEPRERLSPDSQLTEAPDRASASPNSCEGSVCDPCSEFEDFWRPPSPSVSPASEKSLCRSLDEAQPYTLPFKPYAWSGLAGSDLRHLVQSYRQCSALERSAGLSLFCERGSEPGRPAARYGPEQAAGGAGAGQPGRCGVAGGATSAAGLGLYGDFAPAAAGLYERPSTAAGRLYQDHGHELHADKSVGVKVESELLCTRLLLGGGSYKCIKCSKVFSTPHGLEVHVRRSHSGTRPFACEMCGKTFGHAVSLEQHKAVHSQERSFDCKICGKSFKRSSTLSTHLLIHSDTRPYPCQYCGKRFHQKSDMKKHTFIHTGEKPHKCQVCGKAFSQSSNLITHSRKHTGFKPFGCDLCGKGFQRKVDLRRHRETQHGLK"}, "source": "paper doi:10.1101/767574", "binders": {"B1": {"name": "Myc-tagged Atoh1 (protein, UniProt P48985 1-351)", "chain": "MSRLLHAEEWAEVKELGDHHRHPQPHHVPPLTPQPPATLQARDLPVYPAELSLLDSTDPRAWLTPTLQGLCTARAAQYLLHSPELGASEAAAPRDEADSQGELVRRSGCGGLSKSPGPVKVREQLCKLKGGVVVDELGCSRQRAPSSKQVNGVQKQRRLAANARERRRMHGLNHAFDQLRNVIPSFNNDKKLSKYETLQMAQIYINALSELLQTPNVGEQPPPPTASCKNDHHHLRTASSYEGGAGASAVAGAQPAPGGGPRPTPPGPCRTRFSGPASSGGYSVQLDALHFPAFEDRALTAMMAQKDLSPSLPGGILQPVQEDNSKTSPRSHRSDGEFSPHSHYSDSDEAS"}}, "target": "recombinant GST-Gfi1 protein (UniProt P70338)", "assay": "pull-down", "note": "Results are given in words; binding and its absence hold for the method and conditions named. Binding seen in cells or lysates may run through a third protein. Some results given as binding are weak or reduced against the parent protein; the word gives no strength. Tags and fused reporters may be left off the sequences shown.", "data": [{"binder": "B1", "values": [{"measurement": "binding", "result": "binds"}]}]}
